Source: PMC2726289
These are yes or no findings as the source states them, for the method shown. For some assays here: Binding seen in cells or lysates may run through a third protein. Some results given as binding are weak or reduced against the parent protein; the word gives no strength. Where a sequence is shown, tags or fusion partners need not be part of it.

T1: GST-tagged GRAF1 SH3 domain (UniProt Q9UNA1)
T1 sequence: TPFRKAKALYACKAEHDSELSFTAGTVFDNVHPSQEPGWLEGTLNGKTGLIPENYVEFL


Columns and labels:
[1] = target: T1, GST-tagged GRAF1 SH3 domain; test: pull-down; bead-bound GST-tagged GRAF1 SH3 domain with purified Dynamin; pellet and supernatant fractions on Coomassie-stained gels; both purified
[2] = target: T1, GST-tagged GRAF1 SH3 domain; test: pull-down; GST-tagged GRAF1 SH3 domain as bait against brain cytosol or HeLa cell lysate; only the target purified

| binding [1] | binding [2] | Binder |
| --- | --- | --- |
| binds |  | purified Dynamin1 (protein, UniProt P21575 1-864) MGNRGMEDLIPLVNRLQDAFSAIGQNADLDLPQIAVVGGQSAGKSSVLENFVGRDFLPRGSGIVTRRPLVLQLVNSTTEYAEFLHCKGKKFTDFEEVRLEIEAETDRVTGTNKGISPVPINLRVYSPHVLNLTLVDLPGMTKVPVGDQPPDIEFQIRDMLMQFVTKENCLILAVSPANSDLANSDALKIAKEVDPQGQRTIGVITKLDLMDEGTDARDVLENKLLPLRRGYIGVVNRSQKDIDGKKDITAALAAERKFFLSHPSYRHLADRMGTPYLQKVLNQQLTNHIRDTLPGLRNKLQSQLLSIEKEVDEYKNFRPDDPARKTKALLQMVQQFAVDFEKRIEGSGDQIDTYELSGGARINRIFHERFPFELVKMEFDEKELRREISYAIKNIHGIRTGLFTPDLAFEATVKKQVQKLKEPSIKCVDMVVSELTSTIRKCSEKLQQYPRLREEMERIVTTHIREREGRTKEQVMLLIDIELAYMNTNHEDFIGFANAQQRSNQMNKKKTSGNQDEILVIRKGWLTINNIGIMKGGSKEYWFVLTAENLSWYKDDEEKEKKYMLSVDNLKLRDVEKGFMSSKHIFALFNTEQRNVYKDYRQLELACETQEEVDSWKASFLRAGVYPERVGDKEKASETEENGSDSFMHSMDPQLERQVETIRNLVDSYMAIVNKTVRDLMPKTIMHLMINNTKEFIFSELLANLYSCGDQNTLMEESAEQAQRRDEMLRMYHALKEALSIIGDINTTTVSTPMPPPVDDSWLQVQSVPAGRRSPTSSPTPQRRAPAVPPARPGSRGPAPGPPPAGSALGGAPPVPSRPGASPDPFGPPPQVPSRPNRAPPGVPSRSGQASPSRPESPRPPFDL |
|  | binds | Dynamin1 (rat brain cytosol) (protein, UniProt P21575 1-864) MGNRGMEDLIPLVNRLQDAFSAIGQNADLDLPQIAVVGGQSAGKSSVLENFVGRDFLPRGSGIVTRRPLVLQLVNSTTEYAEFLHCKGKKFTDFEEVRLEIEAETDRVTGTNKGISPVPINLRVYSPHVLNLTLVDLPGMTKVPVGDQPPDIEFQIRDMLMQFVTKENCLILAVSPANSDLANSDALKIAKEVDPQGQRTIGVITKLDLMDEGTDARDVLENKLLPLRRGYIGVVNRSQKDIDGKKDITAALAAERKFFLSHPSYRHLADRMGTPYLQKVLNQQLTNHIRDTLPGLRNKLQSQLLSIEKEVDEYKNFRPDDPARKTKALLQMVQQFAVDFEKRIEGSGDQIDTYELSGGARINRIFHERFPFELVKMEFDEKELRREISYAIKNIHGIRTGLFTPDLAFEATVKKQVQKLKEPSIKCVDMVVSELTSTIRKCSEKLQQYPRLREEMERIVTTHIREREGRTKEQVMLLIDIELAYMNTNHEDFIGFANAQQRSNQMNKKKTSGNQDEILVIRKGWLTINNIGIMKGGSKEYWFVLTAENLSWYKDDEEKEKKYMLSVDNLKLRDVEKGFMSSKHIFALFNTEQRNVYKDYRQLELACETQEEVDSWKASFLRAGVYPERVGDKEKASETEENGSDSFMHSMDPQLERQVETIRNLVDSYMAIVNKTVRDLMPKTIMHLMINNTKEFIFSELLANLYSCGDQNTLMEESAEQAQRRDEMLRMYHALKEALSIIGDINTTTVSTPMPPPVDDSWLQVQSVPAGRRSPTSSPTPQRRAPAVPPARPGSRGPAPGPPPAGSALGGAPPVPSRPGASPDPFGPPPQVPSRPNRAPPGVPSRSGQASPSRPESPRPPFDL |
